Measured values reported in paper doi:10.1101/2025.02.10.637573 (bioRxiv, 2025).

Amino acid sequences for entries named in this document (tags omitted). A change or cut given only in a name is not applied to a line headed by its entry.
UniProt P36044: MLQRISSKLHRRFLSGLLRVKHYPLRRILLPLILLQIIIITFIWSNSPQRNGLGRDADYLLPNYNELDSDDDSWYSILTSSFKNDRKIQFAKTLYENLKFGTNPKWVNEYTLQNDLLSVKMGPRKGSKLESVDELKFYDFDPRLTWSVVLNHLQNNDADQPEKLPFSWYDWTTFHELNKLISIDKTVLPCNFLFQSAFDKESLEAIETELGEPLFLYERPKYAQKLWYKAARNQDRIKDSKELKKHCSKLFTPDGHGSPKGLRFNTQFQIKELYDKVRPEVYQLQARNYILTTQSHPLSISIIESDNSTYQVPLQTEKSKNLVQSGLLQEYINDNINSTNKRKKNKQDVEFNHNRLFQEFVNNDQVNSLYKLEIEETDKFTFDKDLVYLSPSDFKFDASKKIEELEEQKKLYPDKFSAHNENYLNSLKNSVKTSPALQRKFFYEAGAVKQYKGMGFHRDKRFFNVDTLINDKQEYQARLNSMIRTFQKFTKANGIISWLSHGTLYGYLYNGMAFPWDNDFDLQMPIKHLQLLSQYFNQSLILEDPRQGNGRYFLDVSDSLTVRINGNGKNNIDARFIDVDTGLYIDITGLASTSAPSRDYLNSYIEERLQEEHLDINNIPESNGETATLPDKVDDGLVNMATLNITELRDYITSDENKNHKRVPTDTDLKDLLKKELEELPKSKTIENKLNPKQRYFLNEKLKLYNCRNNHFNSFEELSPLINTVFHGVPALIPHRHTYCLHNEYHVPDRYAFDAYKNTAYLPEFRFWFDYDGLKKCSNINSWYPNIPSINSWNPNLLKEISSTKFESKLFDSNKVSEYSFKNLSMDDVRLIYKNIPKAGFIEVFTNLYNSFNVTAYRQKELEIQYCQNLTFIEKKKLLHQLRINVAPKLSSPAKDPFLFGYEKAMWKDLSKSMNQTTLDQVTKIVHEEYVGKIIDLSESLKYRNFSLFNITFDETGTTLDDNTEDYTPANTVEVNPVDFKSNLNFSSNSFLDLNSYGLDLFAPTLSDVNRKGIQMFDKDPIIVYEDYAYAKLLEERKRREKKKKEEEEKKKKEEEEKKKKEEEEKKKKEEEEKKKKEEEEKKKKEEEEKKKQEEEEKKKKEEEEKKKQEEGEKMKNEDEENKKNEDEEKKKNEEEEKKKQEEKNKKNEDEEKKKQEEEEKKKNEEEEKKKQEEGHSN
UniProt P32368: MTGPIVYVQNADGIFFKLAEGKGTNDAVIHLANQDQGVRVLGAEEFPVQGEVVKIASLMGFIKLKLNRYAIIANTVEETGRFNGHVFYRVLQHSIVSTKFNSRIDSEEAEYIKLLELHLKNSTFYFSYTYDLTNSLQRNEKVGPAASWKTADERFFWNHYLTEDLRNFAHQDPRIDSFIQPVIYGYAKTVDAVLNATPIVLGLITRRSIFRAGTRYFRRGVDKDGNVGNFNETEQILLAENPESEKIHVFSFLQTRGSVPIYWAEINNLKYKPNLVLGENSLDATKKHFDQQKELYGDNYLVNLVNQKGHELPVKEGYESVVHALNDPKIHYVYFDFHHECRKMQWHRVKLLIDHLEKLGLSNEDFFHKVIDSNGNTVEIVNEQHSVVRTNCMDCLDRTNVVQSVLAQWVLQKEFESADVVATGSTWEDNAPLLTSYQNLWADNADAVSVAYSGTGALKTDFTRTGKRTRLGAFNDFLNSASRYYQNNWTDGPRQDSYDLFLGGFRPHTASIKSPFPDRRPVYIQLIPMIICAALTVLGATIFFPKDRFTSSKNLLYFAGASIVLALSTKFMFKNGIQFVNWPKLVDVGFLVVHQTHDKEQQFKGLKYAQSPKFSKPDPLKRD

Experiments:
Assay in all cases: pull-down
Twin-Strep-Vps74 = Twin-Strep-Vps74 (yeast, UniProt Q06385)
[1] = molecular target: T1, Vps74 (bacterially expressed, as used in the in vitro mixing assays) (yeast) (UniProt Q06385)
T1 sequence: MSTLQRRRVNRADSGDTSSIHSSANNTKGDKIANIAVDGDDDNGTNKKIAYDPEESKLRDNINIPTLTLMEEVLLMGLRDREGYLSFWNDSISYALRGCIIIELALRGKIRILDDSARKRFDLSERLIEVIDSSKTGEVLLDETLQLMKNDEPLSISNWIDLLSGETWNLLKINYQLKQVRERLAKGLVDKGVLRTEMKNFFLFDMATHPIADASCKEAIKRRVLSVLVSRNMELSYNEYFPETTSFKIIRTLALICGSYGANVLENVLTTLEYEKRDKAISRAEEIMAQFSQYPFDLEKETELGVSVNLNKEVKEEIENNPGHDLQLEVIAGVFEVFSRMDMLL

[2] = molecular target: T2, Vps74 K178A R181A (yeast) (UniProt Q06385)
T2 sequence: T1 sequence with K178A, R181A

Vps74 R97A (yeast) = molecular target: T3, Vps74 R97A (yeast) (UniProt Q06385)
T3 sequence: T1 sequence with R97A

Measured: binding

N-terminus of Mnn4 (from UniProt P36044) (domain or fragment)
binds: Twin-Strep-Vps74 | Twin-Strep-Vps74; record 2 | [1] | [2] | Vps74 R97A (yeast)

soluble domain of Sac1 (from UniProt P32368) (domain or fragment)
binds: Twin-Strep-Vps74

Substitutions are numbered along the chain they refer to. Like-named read-outs stand apart in the source and are kept apart here. Results are given in words; binding and its absence hold for the method and conditions named. Binding can be weak; no strength is given. For part of these data: Binding seen in cells or lysates may run through a third protein.
